In the supplement of paper PMC10849652:
The list shows a part of the results.

Amino acid sequences for entries named in this document (tags omitted). A change or cut given only in a name is not applied to a line headed by its entry.
UniProt Q16539, whole entry, looked up: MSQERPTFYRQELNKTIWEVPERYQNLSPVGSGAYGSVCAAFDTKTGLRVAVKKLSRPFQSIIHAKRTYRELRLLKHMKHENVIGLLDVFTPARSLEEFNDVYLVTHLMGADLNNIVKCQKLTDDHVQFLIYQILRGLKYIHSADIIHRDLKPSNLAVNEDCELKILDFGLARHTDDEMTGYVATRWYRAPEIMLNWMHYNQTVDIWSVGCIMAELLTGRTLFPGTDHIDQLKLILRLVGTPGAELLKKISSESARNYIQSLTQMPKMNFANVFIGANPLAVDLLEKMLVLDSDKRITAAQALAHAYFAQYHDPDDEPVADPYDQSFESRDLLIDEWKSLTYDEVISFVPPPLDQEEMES
UniProt Q15759, whole entry, looked up: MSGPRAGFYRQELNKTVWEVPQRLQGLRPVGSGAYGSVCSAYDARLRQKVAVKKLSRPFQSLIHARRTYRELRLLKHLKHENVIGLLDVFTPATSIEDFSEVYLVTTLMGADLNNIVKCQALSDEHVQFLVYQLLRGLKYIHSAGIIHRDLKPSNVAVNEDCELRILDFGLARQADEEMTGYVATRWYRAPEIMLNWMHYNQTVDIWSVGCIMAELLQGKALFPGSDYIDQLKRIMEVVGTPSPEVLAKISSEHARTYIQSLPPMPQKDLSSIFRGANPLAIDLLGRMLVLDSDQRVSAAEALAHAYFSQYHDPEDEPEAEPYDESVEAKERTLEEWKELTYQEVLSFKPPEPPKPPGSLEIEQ
UniProt O75608: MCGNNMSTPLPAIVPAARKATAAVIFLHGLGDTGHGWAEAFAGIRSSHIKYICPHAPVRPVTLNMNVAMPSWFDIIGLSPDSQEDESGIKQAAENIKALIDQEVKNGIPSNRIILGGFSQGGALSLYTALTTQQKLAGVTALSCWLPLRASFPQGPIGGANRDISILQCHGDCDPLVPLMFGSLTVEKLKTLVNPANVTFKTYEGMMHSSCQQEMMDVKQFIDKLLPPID
UniProt Q7Z3D4: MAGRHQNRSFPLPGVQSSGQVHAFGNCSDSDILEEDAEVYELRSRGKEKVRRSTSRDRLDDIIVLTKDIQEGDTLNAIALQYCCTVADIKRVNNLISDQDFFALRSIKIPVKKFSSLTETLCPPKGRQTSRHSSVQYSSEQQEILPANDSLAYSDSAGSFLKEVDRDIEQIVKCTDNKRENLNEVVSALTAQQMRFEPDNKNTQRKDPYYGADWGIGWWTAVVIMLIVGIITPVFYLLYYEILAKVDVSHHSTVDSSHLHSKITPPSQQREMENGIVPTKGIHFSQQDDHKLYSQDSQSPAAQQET
UniProt O60337: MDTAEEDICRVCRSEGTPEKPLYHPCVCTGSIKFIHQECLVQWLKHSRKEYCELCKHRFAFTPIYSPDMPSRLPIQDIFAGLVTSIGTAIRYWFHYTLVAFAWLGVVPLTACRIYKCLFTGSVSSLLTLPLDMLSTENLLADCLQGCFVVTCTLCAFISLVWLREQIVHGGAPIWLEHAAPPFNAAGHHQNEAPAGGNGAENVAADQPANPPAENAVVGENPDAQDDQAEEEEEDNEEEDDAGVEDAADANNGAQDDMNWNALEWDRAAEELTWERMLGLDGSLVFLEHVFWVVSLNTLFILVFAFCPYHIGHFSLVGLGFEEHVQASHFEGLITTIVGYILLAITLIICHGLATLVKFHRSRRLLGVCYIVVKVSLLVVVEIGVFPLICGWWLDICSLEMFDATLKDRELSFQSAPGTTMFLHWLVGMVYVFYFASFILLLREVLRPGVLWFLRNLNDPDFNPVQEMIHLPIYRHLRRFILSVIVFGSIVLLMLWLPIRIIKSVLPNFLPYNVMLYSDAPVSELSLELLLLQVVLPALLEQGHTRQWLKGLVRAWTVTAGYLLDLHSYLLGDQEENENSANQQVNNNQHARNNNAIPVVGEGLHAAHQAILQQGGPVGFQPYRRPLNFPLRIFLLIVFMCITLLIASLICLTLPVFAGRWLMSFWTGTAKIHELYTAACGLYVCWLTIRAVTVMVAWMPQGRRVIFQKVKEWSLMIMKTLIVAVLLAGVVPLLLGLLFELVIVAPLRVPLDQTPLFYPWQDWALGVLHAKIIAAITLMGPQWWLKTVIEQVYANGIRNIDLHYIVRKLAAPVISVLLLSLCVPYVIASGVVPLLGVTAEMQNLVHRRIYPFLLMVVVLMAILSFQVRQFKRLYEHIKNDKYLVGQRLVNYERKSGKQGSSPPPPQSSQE
UniProt Q9P0L2: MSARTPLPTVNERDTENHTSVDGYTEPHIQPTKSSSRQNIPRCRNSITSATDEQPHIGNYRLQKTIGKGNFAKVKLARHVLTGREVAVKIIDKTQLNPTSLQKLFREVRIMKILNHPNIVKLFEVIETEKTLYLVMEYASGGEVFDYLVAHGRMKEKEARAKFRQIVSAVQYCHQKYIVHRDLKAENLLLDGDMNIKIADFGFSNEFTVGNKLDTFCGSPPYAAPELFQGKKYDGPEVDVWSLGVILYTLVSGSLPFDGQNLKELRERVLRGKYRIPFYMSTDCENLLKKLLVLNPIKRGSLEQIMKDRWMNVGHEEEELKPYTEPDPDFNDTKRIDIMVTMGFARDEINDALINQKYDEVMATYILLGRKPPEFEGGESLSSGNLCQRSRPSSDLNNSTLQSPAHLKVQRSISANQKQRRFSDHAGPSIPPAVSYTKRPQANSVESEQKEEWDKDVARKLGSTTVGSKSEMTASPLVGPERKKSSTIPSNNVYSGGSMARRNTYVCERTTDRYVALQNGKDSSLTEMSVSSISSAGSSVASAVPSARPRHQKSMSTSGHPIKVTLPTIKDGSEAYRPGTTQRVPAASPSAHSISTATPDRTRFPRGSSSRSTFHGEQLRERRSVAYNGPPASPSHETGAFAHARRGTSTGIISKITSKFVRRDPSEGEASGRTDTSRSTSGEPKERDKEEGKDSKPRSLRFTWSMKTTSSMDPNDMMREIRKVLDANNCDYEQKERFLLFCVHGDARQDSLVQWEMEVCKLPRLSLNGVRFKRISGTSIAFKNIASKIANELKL
UniProt P49006: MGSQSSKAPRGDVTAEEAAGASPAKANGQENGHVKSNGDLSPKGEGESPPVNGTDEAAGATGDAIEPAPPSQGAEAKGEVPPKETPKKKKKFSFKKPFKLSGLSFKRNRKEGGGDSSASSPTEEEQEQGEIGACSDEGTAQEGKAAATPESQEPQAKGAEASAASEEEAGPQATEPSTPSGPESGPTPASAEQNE
UniProt Q66K74: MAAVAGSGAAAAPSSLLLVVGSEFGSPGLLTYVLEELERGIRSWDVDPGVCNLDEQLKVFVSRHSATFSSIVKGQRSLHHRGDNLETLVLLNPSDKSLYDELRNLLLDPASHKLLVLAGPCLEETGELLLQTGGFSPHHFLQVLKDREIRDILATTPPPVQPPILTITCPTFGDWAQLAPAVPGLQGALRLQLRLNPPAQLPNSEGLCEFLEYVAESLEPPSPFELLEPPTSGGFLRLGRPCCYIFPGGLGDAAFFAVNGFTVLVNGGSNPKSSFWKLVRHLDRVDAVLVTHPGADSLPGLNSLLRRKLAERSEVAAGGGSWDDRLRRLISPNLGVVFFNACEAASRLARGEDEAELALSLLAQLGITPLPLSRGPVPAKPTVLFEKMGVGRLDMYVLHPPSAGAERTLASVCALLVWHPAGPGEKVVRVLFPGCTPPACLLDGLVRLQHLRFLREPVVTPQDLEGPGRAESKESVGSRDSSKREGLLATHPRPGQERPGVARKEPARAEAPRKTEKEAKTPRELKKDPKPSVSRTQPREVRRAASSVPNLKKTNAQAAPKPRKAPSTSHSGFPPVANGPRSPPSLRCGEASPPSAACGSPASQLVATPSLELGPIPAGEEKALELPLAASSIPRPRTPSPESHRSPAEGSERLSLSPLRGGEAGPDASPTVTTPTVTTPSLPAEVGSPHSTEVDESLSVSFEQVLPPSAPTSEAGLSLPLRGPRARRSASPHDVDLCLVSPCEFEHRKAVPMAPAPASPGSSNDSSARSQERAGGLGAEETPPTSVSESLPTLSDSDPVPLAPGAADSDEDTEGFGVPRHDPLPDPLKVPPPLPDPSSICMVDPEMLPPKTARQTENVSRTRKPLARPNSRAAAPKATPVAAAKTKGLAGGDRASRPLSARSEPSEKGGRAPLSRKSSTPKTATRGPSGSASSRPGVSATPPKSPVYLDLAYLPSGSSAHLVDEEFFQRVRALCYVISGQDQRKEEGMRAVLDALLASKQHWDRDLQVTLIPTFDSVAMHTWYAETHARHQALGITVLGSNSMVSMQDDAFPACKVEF
UniProt P31153, whole entry, looked up: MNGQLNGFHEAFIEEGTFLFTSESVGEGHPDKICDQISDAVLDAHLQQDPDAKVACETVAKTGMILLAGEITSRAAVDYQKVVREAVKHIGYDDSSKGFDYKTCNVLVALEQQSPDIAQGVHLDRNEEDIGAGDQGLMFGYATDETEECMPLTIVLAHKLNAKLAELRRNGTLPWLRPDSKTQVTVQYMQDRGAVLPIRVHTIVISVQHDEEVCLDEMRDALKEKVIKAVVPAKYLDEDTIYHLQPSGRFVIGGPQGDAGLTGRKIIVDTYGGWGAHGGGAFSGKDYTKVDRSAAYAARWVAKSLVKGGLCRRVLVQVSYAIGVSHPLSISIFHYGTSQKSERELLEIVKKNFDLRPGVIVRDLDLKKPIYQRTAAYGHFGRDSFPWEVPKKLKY
UniProt Q13257, whole entry, looked up: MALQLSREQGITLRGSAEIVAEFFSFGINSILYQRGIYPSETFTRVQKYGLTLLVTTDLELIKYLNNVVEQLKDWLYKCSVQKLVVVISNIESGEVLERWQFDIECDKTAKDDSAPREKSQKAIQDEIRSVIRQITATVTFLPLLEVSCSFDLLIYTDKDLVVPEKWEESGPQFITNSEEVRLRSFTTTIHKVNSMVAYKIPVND
UniProt P07948: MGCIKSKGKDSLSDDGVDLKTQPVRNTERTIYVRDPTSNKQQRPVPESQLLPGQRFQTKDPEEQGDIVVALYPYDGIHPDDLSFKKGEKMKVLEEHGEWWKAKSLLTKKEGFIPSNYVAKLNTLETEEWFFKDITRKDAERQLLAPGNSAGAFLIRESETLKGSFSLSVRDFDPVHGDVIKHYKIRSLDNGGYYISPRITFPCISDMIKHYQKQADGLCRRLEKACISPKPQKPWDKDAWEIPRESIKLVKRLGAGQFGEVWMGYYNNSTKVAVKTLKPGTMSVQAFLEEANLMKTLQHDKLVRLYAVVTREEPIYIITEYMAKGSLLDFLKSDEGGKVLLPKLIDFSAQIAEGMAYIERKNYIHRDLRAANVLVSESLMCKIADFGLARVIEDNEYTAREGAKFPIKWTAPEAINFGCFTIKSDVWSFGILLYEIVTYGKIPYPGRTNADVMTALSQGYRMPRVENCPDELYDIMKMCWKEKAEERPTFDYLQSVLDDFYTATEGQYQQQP
UniProt Q8WZA0: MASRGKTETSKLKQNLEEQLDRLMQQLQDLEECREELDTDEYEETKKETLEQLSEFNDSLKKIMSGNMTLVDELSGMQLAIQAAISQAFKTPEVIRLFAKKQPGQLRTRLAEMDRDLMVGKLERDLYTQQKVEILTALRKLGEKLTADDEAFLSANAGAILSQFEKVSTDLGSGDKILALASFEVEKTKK
UniProt Q8N653: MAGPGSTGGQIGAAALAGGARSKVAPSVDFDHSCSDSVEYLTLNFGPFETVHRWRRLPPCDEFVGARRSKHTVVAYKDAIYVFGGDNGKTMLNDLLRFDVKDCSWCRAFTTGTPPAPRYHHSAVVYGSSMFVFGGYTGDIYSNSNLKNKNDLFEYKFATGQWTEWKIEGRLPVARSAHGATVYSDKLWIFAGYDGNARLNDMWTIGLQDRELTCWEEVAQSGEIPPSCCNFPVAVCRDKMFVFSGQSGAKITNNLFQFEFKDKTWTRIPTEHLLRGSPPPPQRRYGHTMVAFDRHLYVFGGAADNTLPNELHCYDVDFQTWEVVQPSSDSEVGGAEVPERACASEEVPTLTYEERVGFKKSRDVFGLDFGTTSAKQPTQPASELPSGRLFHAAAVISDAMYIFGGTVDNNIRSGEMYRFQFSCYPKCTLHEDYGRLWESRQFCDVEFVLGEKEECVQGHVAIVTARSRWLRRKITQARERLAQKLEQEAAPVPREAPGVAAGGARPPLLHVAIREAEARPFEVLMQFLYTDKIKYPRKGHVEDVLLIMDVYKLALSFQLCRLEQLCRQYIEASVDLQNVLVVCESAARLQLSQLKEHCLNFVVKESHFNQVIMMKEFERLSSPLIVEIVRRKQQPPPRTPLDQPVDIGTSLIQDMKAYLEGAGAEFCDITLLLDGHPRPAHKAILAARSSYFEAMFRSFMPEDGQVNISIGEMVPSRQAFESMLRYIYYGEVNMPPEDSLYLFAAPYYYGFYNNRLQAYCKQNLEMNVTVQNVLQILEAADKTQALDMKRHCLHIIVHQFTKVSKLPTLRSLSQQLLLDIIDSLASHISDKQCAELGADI

Tests used:
Test in all cases: log2 fold change, soluble protein after heating vs DMSO (PISA); higher = thermal stabilisation; K562 lysate, 10 uM; active = over 0.2 and 3.5 SD of the protein, either way, in both replicates (recomputed)
[1] = compound: C1=CC=C(C=C1)[C@H](COC2=CC3=C(C=C2)NC(=O)N3)NC(=O)C4=CC=CN(C4=O)CC5=CC(=C(C=C5)F)F
Summary of the method: (§1)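 Log-two fold change in thermal stability relative to solvent controls is reported from duplicates. For each sample, crude K562 extract from dounce-homogenised pellets in PBS pH 7.4 with 1 mM MgCl2, at 1 mg/mL protein, was treated with 10 μM compound for 30 min. Aliquots heated for 3 min across 48°C-58°C were pooled, brought to 0.5% NP-40 at 4°C and cleared at 21,000xg for 90 min. The supernatant was quantified by TMTpro 16plex LC-MS/MS with channel sums equalised.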

[2] = compound: CC1=C(SC2=C1C(=N[C@H](C3=NN=C(N32)C)CC(=O)N)C4=CC=C(C=C4)Cl)C
Summary of the method: as §1

[3] = compound: CC1=C2C(=CC=C1)N=C(N(C2=O)C3=CC=CC=C3C)CN4C=NC5=C(N=CN=C54)N
Summary of the method: as §1

[4] = compound: Cc1sc2c(c1C)C(c1ccc(Cl)cc1)=N[C@@H](CC(=O)OC(C)(C)C)c1nnc(C)n1-2
Summary of the method: as §1

[5] = compound: c1ccc([C@@H]2C[C@H]2NC2CCNCC2)cc1
Summary of the method: as §1

Measured: log2 fold change

MALSU1 (UniProt Q96EH3)
inactive: [1] -0.008 | [2] 0.048 | [3] -0.043 | [4] -0.07 | [5] -0.105

MAPK14 isoform 2 (UniProt Q16539)
inactive: [1] 0.008 | [2] -0.053 | [3] 0.014 | [4] -0.028 | [5] 0.154

MAPK11 (UniProt Q15759)
inactive: [1] -0.044 | [2] -0.036

MAF1 (UniProt Q9H063)
inactive: [1] 0.063 | [2] 0.006 | [3] 0.015 | [4] 0.117 | [5] -0.068

LYPLA1 (UniProt O75608)
inactive: [1] -0.081 | [2] -0.04 | [3] 0.027 | [4] 0.04 | [5] 0.009

MAP2K4 isoform 2 (UniProt P45985)
inactive: [1] -0.018 | [2] 0.005 | [3] -0.065 | [4] -0.013 | [5] 0.188

LYSMD3 (UniProt Q7Z3D4)
inactive: [1] 0.031 | [2] 0.063 | [3] 0.062 | [4] -0.096 | [5] -0.084

MARCHF6 (UniProt O60337)
inactive: [1] -0.269 | [2] -0.192 | [3] -0.107 | [4] -0.082 | [5] 0.029

Copied from the entries so far (2 entries):
LYSMD3 (UniProt Q7Z3D4)
inactive: [1] 0.031 | [2] 0.063 | [3] 0.062 | [4] -0.096 | [5] -0.084

MARCHF6 (UniProt O60337)
inactive: [1] -0.269 | [2] -0.192 | [3] -0.107 | [4] -0.082 | [5] 0.029

Remaining list, next part.

LUC7L2 (UniProt Q9Y383)
inactive: [1] 0.017 | [2] 0.001 | [3] 0.012 | [4] 0.027 | [5] 0.068

LZTS2 (UniProt Q9BRK4)
inactive: [1] -0.058 | [2] -0.09 | [3] 0.031 | [4] -0.104

MARK1 (UniProt Q9P0L2)
inactive: [1] -0.034 | [2] 0.036 | [3] 0.019 | [4] -0.006 | [5] 0.116

MADD isoform 4 (UniProt Q8WXG6)
inactive: [1] -0.005 | [2] 0.009 | [3] 0.039 | [4] -0.016 | [5] 0.006

MARCKSL1 (UniProt P49006)
inactive: [1] 0.028 | [2] -0.021 | [3] -0.043 | [4] 0.078 | [5] 0.127

MAP1S (UniProt Q66K74)
inactive: [1] 0.029 | [2] 0.011 | [3] 0.021 | [4] 0.019 | [5] 0.018

MACF1 (UniProt H3BQK9)
inactive: [1] -0.029 | [2] -0.004 | [3] 0.025 | [4] -0.02 | [5] 0.013

MAT2A (UniProt P31153)
inactive: [1] 0.042 | [2] 0.002 | [3] 0.033 | [4] 0.004 | [5] 0.012

MAD2L1 (UniProt Q13257)
inactive: [1] -0.045 | [2] 0.006 | [3] -0.008 | [4] -0.035 | [5] -0.079

LYN (UniProt P07948)
inactive: [1] -0.063 | [2] -0.103 | [3] -0.091 | [4] -0.032 | [5] 0.011

MAP4 isoform 5 (UniProt P27816)
inactive: [1] -0.065 | [2] 0.099 | [3] 0.163 | [4] 0.181

LZIC isoform 2 (UniProt Q8WZA0)
inactive: [1] 0.03 | [2] 0.005 | [3] 0.013 | [4] 0.011 | [5] 0.02

MAPK14 (UniProt Q16539)
inactive: [1] 0.007 | [2] 0.024 | [3] 0.034 | [4] -0.04 | [5] -0.015

MAGT1 (UniProt Q9H0U3)
inactive: [1] 0.03 | [2] 0.021 | [3] 0.005 | [4] -0.013 | [5] -0.017

MAST4 (UniProt O15021)
inactive: [1] 0.007 | [2] -0.019 | [3] -0.037 | [4] 0.023 | [5] 0

MAD1L1 (UniProt Q9Y6D9)
inactive: [1] 0.072 | [2] -0.04 | [3] 0.021 | [4] -0.013 | [5] -0.011

LZTR1 (UniProt Q8N653)
inactive: [1] -0.237 | [2] 0.004 | [3] 0.005 | [4] -0.004 | [5] 0.036
